Data published in PubChem BioAssay AID445 (National Center for Advancing Translational Sciences (NCATS), 2006).
The other results are listed elsewhere or left out. Shown are side measurements of this screen, not its main read-out; they come without a call. The list favours compounds with an active or inconclusive main result. Words in brackets tell the shape of the fitted curve; partial curves, single points and poor fits give uncertain potencies.

Test: IkB Signaling
Details: ABC-DLBCL IkBa-CBG/CBR dual luciferase ratio (green luciferase fused to IkBa over red control in OCI-Ly3 lymphoma cells), 4 h
Procedure, shortened: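 Curves were fitted separately to fusion (green), unfused (red) and ratio luminescence, then classed by r2, magnitude and activity. Cells: OCI-Ly3, 4 h compound plus doxycycline at 37C; 10 uM MG-132 defined full response.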

[1] = measured here: control luc red channel unless noted

**Q.** Which AC50 [1] does the source give for `Cn1c(CCNC(=O)c2ccco2)nc2cc(NS(=O)(=O)c3ccc(Cl)cc3)ccc21` here?
**A.** 3.98 µM [falling, full curve, poor fit]

**Q.** Which AC50 [1] does the source give for `COC(=O)C1=C(N)Oc2cc(C)n(CCc3ccccc3)c(=O)c2C1c1cccnc1` (stereo not drawn) here?
**A.** 12.6 µM [falling, partial curve]

**Q.** Which AC50 [1] does the source give for `COc1ccc(-c2cc3ccc(O)c(CN4CCC(C)CC4)c3oc2=O)cc1` here?
**A.** 5.01 µM [rising, single point]

**Q.** For `O=C(Nc1ccc2oc(-c3cccnc3)nc2c1)c1ccc(-c2ccccc2OC(F)(F)F)o1`, which AC50 [1] is on record?
**A.** 0.316 µM [falling, full curve, poor fit]

**Q.** For `O=C(O)c1ccc(Nc2nc3ccccc3n3cnnc23)cc1`, which AC50 [1] is on record?
**A.** 0.0501 µM [falling, full curve]

**Q.** For `CC(=O)Nc1nonc1-c1nnc(SCC(=O)Nc2cccc(F)c2)n1-c1ccccc1`, which AC50 [1] is on record?
**A.** 15.8 µM [falling, partial curve]

**Q.** Which AC50 [1] does the source give for `Cc1ccc(N2CCN(S(=O)(=O)c3cc(C(=O)Nc4cc(Cl)cc(Cl)c4)ccc3F)CC2C)cc1` (stereo not drawn) here?
**A.** 12.6 µM [falling, single point]

**Q.** With `COC(=O)c1scc(-c2ccc(C)cc2)c1S(=O)(=O)Nc1ccc(F)cc1F` as the compound, how does the AC50 [1] read?
**A.** 39.8 µM [falling, single point]

**Q.** Which AC50 [1] does the source give for `c1ccc(NCc2nc(-c3ccccc3)no2)cc1` here?
**A.** 10 µM [falling, partial curve]

**Q.** Which AC50 [1] does the source give for `O=C(Nc1ccc(N2CCOCC2)cc1)Nc1ccc2nc(-c3ccco3)c(-c3ccco3)nc2c1` here?
**A.** 20 µM [falling, partial curve]

**Q.** With `O=C(OCc1cc(=O)n2c(n1)sc1ccccc12)c1ccc2c(=O)n3c(nc2c1)CCC3` as the compound, how does the AC50 [1] read?
**A.** 15.8 µM [falling, partial curve]

**Q.** With `COc1ccccc1N1CCN(c2ccc(=O)n(CC(=O)NCc3ccc(OC(C)C)cc3)n2)CC1` as the compound, how does the AC50 [1] read?
**A.** 25.1 µM [falling, single point]

**Q.** With `O=C(Nc1ccc(Br)cc1)c1ccc(F)c(S(=O)(=O)N2CCCc3ccccc32)c1` as the compound, how does the AC50 [1] read?
**A.** 7.94 µM [falling, partial curve]

**Q.** Which AC50 [1] does the source give for `O=C(COc1ccc(Br)cc1Cl)Nc1ncn[nH]1` here?
**A.** 6.31 µM [rising, partial curve]

**Q.** With `c1ccc2c(c1)CCN(c1nc3cc4c(cc3s1)OCO4)C2` as the compound, how does the AC50 [1] read?
**A.** 12.6 µM [falling, partial curve]

**Q.** Which AC50 [1] does the source give for `CCc1ccc(NC(=O)CSc2nc(-c3ccccc3Cl)nc3c2Cc2c(CO)cnc(C)c2O3)cc1` here?
**A.** 0.794 µM [rising, full curve]

**Q.** For `COc1ccc(OCC(=O)Nc2ccc3c(c2)nc(CCNC(=O)c2ccco2)n3C)cc1`, which AC50 [1] is on record?
**A.** 39.8 µM [rising, single point]

**Q.** For `Cc1ccc(Cl)cc1N1CCN(C(=O)c2ccc(CN3CCOCC3)cc2)CC1`, which AC50 [1] is on record?
**A.** 15.8 µM [falling, partial curve]

**Q.** With `CCc1ccc2nc(N(Cc3cccnc3)C(C)=O)sc2c1` as the compound, how does the AC50 [1] read?
**A.** 10 µM [rising, single point]

**Q.** For `CCOC(=O)c1ccc(CN(Cc2ccc(Cl)cc2Cl)S(=O)(=O)c2ccc(F)c(C)c2)cc1`, which AC50 [1] is on record?
**A.** 15.8 µM [falling, partial curve]

**Q.** With `COc1ccc(C2CC(=O)N(Cc3ccc(F)cc3)c3ccccc3S2)cc1OC` (stereo not drawn) as the compound, how does the AC50 [1] read?
**A.** 20 µM [falling, partial curve]

**Q.** Which AC50 [1] does the source give for `COc1ccc(OC)c2sc(N3CCN(C(=O)c4ccc5c(c4)CCCC5)CC3)nc12` here?
**A.** 39.8 µM [falling, single point]

**Q.** For `c1ccc(N2CCN(Cc3cccn3-c3nnc(N4CCN(C5CCCCC5)CC4)s3)CC2)cc1`, which AC50 [1] is on record?
**A.** 31.6 µM [falling, partial curve, poor fit]

**Q.** For `O=C(CN1CCN(Cc2cccc(Cl)c2)C1=O)NCc1ccc(F)cc1`, which AC50 [1] is on record?
**A.** 15.8 µM [falling, single point]

**Q.** Which AC50 [1] does the source give for `Cc1nn(-c2ccccc2)c(-n2cccc2)c1C(=O)NCCc1ccc(Cl)cc1` here?
**A.** 15.8 µM [falling, partial curve]

**Q.** With `CN1/C(=C\C(=O)COC(=O)CN2C(=O)C3CC=CCC3C2=O)C(C)(C)c2ccccc21` (stereo not drawn) as the compound, how does the AC50 [1] read?
**A.** 25.1 µM [falling, single point]

**Q.** With `COc1ccc(NC(=O)c2c(NCc3ccc(N(C)C)cc3)sc3c2CCC3)cc1` as the compound, how does the AC50 [1] read?
**A.** 12.6 µM [falling, partial curve]

**Q.** Which AC50 [1] does the source give for `Cc1ccsc1CN(C(=O)c1oc2ccc(F)cc2c1C)C1CCS(=O)(=O)C1` (stereo not drawn) here?
**A.** 15.8 µM [falling, partial curve]

**Q.** With `Cc1ccc(Nc2ncc(C(=O)N3CCN(c4ccc(F)cc4)CC3)c3ccccc23)cc1Cl` as the compound, how does the AC50 [1] read?
**A.** 1.58 µM [falling, full curve]

**Q.** With `CCOc1ccc(-c2nonc2NC(=O)c2oc3cc(C)c(C)cc3c2C)cc1OCC` as the compound, how does the AC50 [1] read?
**A.** 0.794 µM [rising, full curve]

**Q.** Which AC50 [1] does the source give for `CCOC(=O)c1c(-c2ccc(C)o2)csc1NC(=O)COC(=O)c1cccs1` here?
**A.** 31.6 µM [falling, partial curve]

**Q.** With `CCc1ccc(NC(=O)c2ccc(F)c(S(=O)(=O)N3CCC4(CC3)OCCO4)c2)cc1` as the compound, how does the AC50 [1] read?
**A.** 31.6 µM [falling, single point]

**Q.** For `O=C(CS(=O)(=O)Cc1ccccc1)N1CCN(c2cccc(C(F)(F)F)c2)CC1`, which AC50 [1] is on record?
**A.** 20 µM [falling, partial curve]

**Q.** With `CCS(=O)(=O)c1ccc(O)c(Nc2cc(C)nc(SC)n2)c1` as the compound, how does the AC50 [1] read?
**A.** 15.8 µM [falling, partial curve]

**Q.** For `CCC(=O)C1=C(c2ccc(Cl)cc2)N(C(=O)CC)n2c(C)nnc2S1`, which AC50 (measured here: IkB-luc green channel) is on record?
**A.** 31.6 µM [rising, single point]

**Q.** What about the AC50 (measured here: control luc red channel) of the same compound?
**A.** 31.6 µM [falling, single point]

**Q.** Which AC50 [1] does the source give for `CCOC(=O)CSc1nnc(CNC(=O)c2cccc(C)c2)n1-c1ccccc1OC` here?
**A.** 15.8 µM [falling, partial curve]

**Q.** For `CCC(C)Cn1c(/C=C/c2ccccc2)nc2ccccc21` (stereo not drawn), which AC50 [1] is on record?
**A.** 25.1 µM [falling, partial curve]

**Q.** Which AC50 [1] does the source give for `CCOC(=O)c1cccc(NC(=O)c2cc3c(=O)n(C)c4ccccc4c3n2C)c1` here?
**A.** 3.98 µM [falling, full curve]

**Q.** With `Cc1cc(C)cc(NC(=O)c2ccc3c(c2)nnn3C2CCCC2)c1` as the compound, how does the AC50 [1] read?
**A.** 1.58 µM [rising, full curve]

**Q.** With `Cc1ccc(NC2=C(CC(=O)O)C(c3ccc(F)cc3)N(c3ccc(C)cc3)C2=O)cc1` (stereo not drawn) as the compound, how does the AC50 [1] read?
**A.** 25.1 µM [falling, partial curve]

**Q.** With `CCN(CC)CCOC(=O)c1ccc(NC(=O)c2nn(C)c3c2COc2ccccc2-3)cc1` as the compound, how does the AC50 [1] read?
**A.** 15.8 µM [falling, partial curve]

**Q.** Which AC50 [1] does the source give for `CC1CCN(S(=O)(=O)c2nnc(NC(=O)c3ccc(C(C)C)cc3)s2)CC1` here?
**A.** 20 µM [falling, partial curve]

**Q.** For `O=C(c1cc(-c2cccc(Cl)c2)on1)N1CCN(c2ccccc2)CC1`, which AC50 [1] is on record?
**A.** 0.1 µM [falling, full curve]

**Q.** With `CC(C)c1cnc2c(c1SCC(=O)Nc1ccc(OC(F)(F)F)cc1)c(=O)n(C)c(=O)n2C` as the compound, how does the AC50 [1] read?
**A.** 0.0631 µM [falling, full curve]

**Q.** With `CCn1c(C(=O)NCc2ccc(OC(C)C)cc2)cc2oc3ccccc3c21` as the compound, how does the AC50 [1] read?
**A.** 10 µM [falling, partial curve]

**Q.** Which AC50 [1] does the source give for `Cc1cccc(N2C(=O)C(CC(=O)Nc3ccc(Cl)cc3)N(Cc3ccco3)C2=O)c1` (stereo not drawn) here?
**A.** 25.1 µM [falling, partial curve]

**Q.** For `Cc1oc(-c2cccc(Cl)c2)nc1CS(=O)(=O)CC(=O)NCc1ccccc1Cl`, which AC50 [1] is on record?
**A.** 25.1 µM [falling, partial curve]

**Q.** With `Cc1ccc2c(c1)c(=O)c1ccccc1n2CCCC(=O)Nc1cc(Cl)ccc1C` as the compound, how does the AC50 [1] read?
**A.** 5.01 µM [falling, full curve]

**Q.** For `Cc1oc2ccc(O)c(CN3CCN(C)CC3)c2c1C(=O)Nc1cccc(Cl)c1C`, which AC50 [1] is on record?
**A.** 31.6 µM [falling, single point]

**Q.** With `COc1ccccc1NC(=O)c1cc(S(=O)(=O)N2CCN(c3ccccc3Cl)CC2)ccc1F` as the compound, how does the AC50 [1] read?
**A.** 3.16 µM [falling, full curve]

**Q.** For `O=C(CN1CCN(c2nc(-c3ccccc3)cs2)CC1)NCc1ccc2c(c1)OCO2`, which AC50 [1] is on record?
**A.** 25.1 µM [falling, partial curve]

**Q.** With `CCOC(=O)N1CCN(c2ccc(C(=O)c3ccccc3)cc2F)CC1` as the compound, how does the AC50 [1] read?
**A.** 15.8 µM [falling, partial curve]

**Q.** Which AC50 [1] does the source give for `Cc1ccccc1Cn1c2ccccc2c2cnn(CC(=O)NC(C)CCc3ccccc3)c(=O)c21` (stereo not drawn) here?
**A.** 10 µM [falling, partial curve]

**Q.** Which AC50 [1] does the source give for `CCc1ccc2oc(C(=O)Nc3c(C)n(C)n(-c4ccccc4)c3=O)cc(=O)c2c1` here?
**A.** 0.0158 µM [rising, full curve, poor fit]

**Q.** For `COC(=O)c1ccc(NC(=O)CN(CCc2ccccc2)S(=O)(=O)c2ccc(OC)cc2)cc1`, which AC50 [1] is on record?
**A.** 7.94 µM [falling, full curve, poor fit]

**Q.** Which AC50 [1] does the source give for `CN(Cc1ccccc1)C(=O)CCCn1c(=O)[nH]c2cc(Cl)ccc2c1=O` here?
**A.** 12.6 µM [falling, partial curve]

**Q.** For `COc1cccc(-c2nc3cc(C)ccc3o2)c1`, which AC50 [1] is on record?
**A.** 20 µM [falling, single point]

**Q.** Which AC50 [1] does the source give for `CCN1CCN(c2cc(C)c3cc(NC(=O)c4cccc(Cl)c4)ccc3n2)CC1` here?
**A.** 15.8 µM [falling, partial curve]

**Q.** For `COc1ccc(C(=O)Nc2ccc(C)cn2)c(OC)c1`, which AC50 [1] is on record?
**A.** 10 µM [falling, partial curve]

**Q.** Which AC50 [1] does the source give for `Cc1ccc(NC(=O)c2cnc(N3CCCCC3)c3ccccc23)cc1Cl` here?
**A.** 10 µM [falling, partial curve]

**Q.** With `COC(=O)c1scc(-c2ccc(C)cc2)c1S(=O)(=O)Nc1cccc(Cl)c1C` as the compound, how does the AC50 [1] read?
**A.** 15.8 µM [falling, single point]

**Q.** For `Cc1ccc(OCCn2cc(C(=O)c3ccco3)c3ccccc32)cc1C`, which AC50 [1] is on record?
**A.** 2.51 µM [falling, partial curve]
